Assay results: patent publication CN112830970A
Changes are numbered by the printed parent chain. These are yes or no findings as the source states them, for the method shown. Some binding calls cover weakened binding; strength is not graded here. One block for each binder: values may come before it.

Protein sequences, listed by entry. Tags and fused reporters are not part of them. Residues count along the entry.
UniProt P20273, residues 20-847: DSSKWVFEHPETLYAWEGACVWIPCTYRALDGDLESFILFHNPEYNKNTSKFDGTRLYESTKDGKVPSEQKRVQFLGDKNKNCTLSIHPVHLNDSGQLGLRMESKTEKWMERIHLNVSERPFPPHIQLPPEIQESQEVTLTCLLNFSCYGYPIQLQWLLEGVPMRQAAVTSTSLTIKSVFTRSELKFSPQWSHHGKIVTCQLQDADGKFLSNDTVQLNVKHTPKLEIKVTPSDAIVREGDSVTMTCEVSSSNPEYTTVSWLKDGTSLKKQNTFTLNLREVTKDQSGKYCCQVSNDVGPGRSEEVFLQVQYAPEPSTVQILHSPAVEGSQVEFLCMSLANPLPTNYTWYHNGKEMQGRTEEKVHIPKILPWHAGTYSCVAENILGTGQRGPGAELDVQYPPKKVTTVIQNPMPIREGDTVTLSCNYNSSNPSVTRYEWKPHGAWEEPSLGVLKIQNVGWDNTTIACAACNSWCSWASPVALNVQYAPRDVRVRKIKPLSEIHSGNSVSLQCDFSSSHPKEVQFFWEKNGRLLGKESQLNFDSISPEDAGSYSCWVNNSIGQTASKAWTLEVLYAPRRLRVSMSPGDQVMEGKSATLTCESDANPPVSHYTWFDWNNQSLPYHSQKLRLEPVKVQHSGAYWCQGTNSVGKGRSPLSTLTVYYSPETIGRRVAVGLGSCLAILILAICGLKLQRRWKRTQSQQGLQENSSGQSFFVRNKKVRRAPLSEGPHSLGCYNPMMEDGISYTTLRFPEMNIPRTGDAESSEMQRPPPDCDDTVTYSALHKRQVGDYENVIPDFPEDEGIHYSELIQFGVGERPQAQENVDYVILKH

How the values were obtained:
[1] = target: CD22 on CHO-K1-CD22 cells (表达CD22的重组细胞株) (UniProt P20273); assay: flow cytometry on cells expressing CD22
[2] = target: CD22 on CHO-K1-CD22 cells (表达CD22的重组细胞株) (UniProt P20273); assay: flow cytometry on recombinant cells expressing CD22, PE anti-human IgG

- binding [1]: binds
B1: H10抗体 (未做人源化处理的原始CD22纳米抗体) (VHH, not shown: a dimerising Fc or GST)
VHH: AVQLVESGGGLVQPGGSLRLSCAASGFTLDHYHIGWFRQAPGKEREGVSCISNSGGSTNYADSVKGRFTISRDNAKNTVYLQMNSLKPEDTAVYYCAAGRWYYDGSRYCPPGAMDYWGKGTLVTVSS

- binding [2]: binds
B2: H10-2-1 (氨基酸替换设计为1E、37V、44G、45 L、119 Q的人源化CD22纳米抗体) (VHH, not shown: a dimerising Fc or GST)
VHH: B1 VHH with A1E, F37V, E44G, R45L, K119Q

- binding [2]: binds
B3: H10-2-4 (氨基酸替换设计为1E、37V、44G、45 L、119 Q、47W的人源化CD22纳米抗体) (VHH, not shown: a dimerising Fc or GST)
VHH: B1 VHH with A1E, F37V, E44G, R45L, G47W, K119Q
